Laboratory results reported in patent publication US8647119B1, “Methods and kits with fluorescent probes for caries detection” (President and Fellows of Harvard College, priority 2006, dated 2014).
At least one structure is not confirmed: it was looked up by name or label, or the drawing left a doubt.

Test: Tetracycline fluorescence detection of white spot caries in enamel samples from extracted teeth
Settings: tetracycline solution 1 mg/ml, 60 seconds, PBS wash, UV light 260 nm

In the case of `CN(C)[C@@H]1C(O)=C(C(N)=O)C(=O)[C@@]2(O)C(O)=C3C(=O)c4c(O)cccc4[C@@](C)(O)[C@H]3C[C@@H]12` [tetracycline], the “fluorescence at the white spot” value is reported as “clear locus of bright yellow fluorescence”.
